Test results reported in PubChem BioAssay AID504467 (National Center for Advancing Translational Sciences (NCATS), 2011).
Hit rate of the full screen: of about 330,000 compounds, about 7,700 (2.3%) were called active. The inconclusive results got no clear call from the source; some entries with a clear call stand among them for comparison. Calls come from the whole dose curve; as a rule, active = well fitted inhibition curve with a large enough effect; inconclusive = small, poorly fitted or top-dose-only effect, or effect the other way; inactive = flat fitted curve, though single readings scatter. Potencies of inconclusive entries are doubtful fits and often do not repeat.

Assay: qHTS screen for small molecules that inhibit ELG1-dependent DNA repair in human embryonic kidney (HEK293T) cells expressing luciferase-tagged ELG1; note: nearly all actives have a fitted effect of over 55% in size
Conditions: HEK293T ELG1-luciferase reporter, luminescence, 16 h, DNA damage induced by 5-fluorouridine; activity change, negative = inhibition: at 46.1 µM (top of the series)
Outline: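 Step one: seed 2,000 cells per well. Step two: pin-transfer compound or DMSO alongside 5-fluorouridine. Step three: incubate 16 hr, 37 °C, 5% CO2. Step four: add ONE-Glo, wait 30 min, read luminescence.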
% is set by controls: 0 for no effect and ±100 for the full control effect; potency is the fitted concentration of half-maximal effect.

**Q.** With COC(=O)c1ccccc1Sc1c(/C=N/OC(=O)c2ccccc2)c(C(F)(F)F)nn1C as the molecule, how does the Potency read?
**A.** Its Potency is inconclusive: 16.4 µM [inhibitor, single point].

**Q.** For O=C(NCc1ccco1)c1ccc(NS(=O)(=O)c2cccc(F)c2)cc1, which activity change, negative = inhibition is on record?
**A.** Its activity change, negative = inhibition is inconclusive: 46.7% [activator].

**Q.** With CCNC(=O)CNC(=O)c1nn(Cc2ccccc2)c(=O)c2ccccc12 as the molecule, how does the Potency read?
**A.** Its Potency is “inactive”.

**Q.** Which Potency does the source give for Cc1ccc(NC(=O)CSc2nc(=O)n(CCCN3CCOCC3)c3c2CCCC3)cc1 here?
**A.** The Potency was “inactive”.

**Q.** For CC(C)NC(=O)c1ccc(Cl)cc1Cl, which Potency is on record?
**A.** Its Potency is inconclusive: 8.2 µM [activator, partial curve, poor fit].

**Q.** With CC(=O)c1cc(F)c(N2CCN(C(=O)COc3ccc(F)cc3)CC2)cc1C as the molecule, how does the Potency read?
**A.** Its Potency is inconclusive: 18.4 µM [inhibitor, single point].

**Q.** With N=C1SCC(=O)N1/N=C/c1ccccc1 as the molecule, how does the Potency read?
**A.** The Potency was inconclusive: 23.1 µM [activator, partial curve].

**Q.** Which Potency does the source give for Cc1cc(N2CCN(C)CC2)nc2ccc(NC(=O)c3ccccc3F)cc12 here?
**A.** Its Potency is inconclusive: 16.4 µM [activator, partial curve].

**Q.** Which Potency does the source give for CCOc1cc(N2CCOCC2)c(OCC)cc1NC(=O)c1ccccc1C here?
**A.** The Potency was “inactive”.

**Q.** For COc1nc(NCCc2ccc(OC)c(OC)c2)nc(NC(C)(C)CO)n1, which Potency is on record?
**A.** The Potency was inconclusive: 29.1 µM [inhibitor, single point].

**Q.** With Nn1c(SCc2ccccc2F)nnc1-c1ccccn1 as the molecule, how does the Potency read?
**A.** Its Potency is inconclusive: 16.4 µM [activator, partial curve].

**Q.** For Cc1cccc(OCCCCc2c(C)n[nH]c2C)c1C, which Potency is on record?
**A.** The Potency was “inactive”.

**Q.** With Cc1ccc(NC(=O)NC2CCCCC2)cc1Cl as the molecule, how does the Potency read?
**A.** Its Potency is inconclusive: 1.58 µM [activator, full curve, poor fit].

**Q.** Which Potency does the source give for O=C(O)c1cccc(NC(=S)NC(NC(=O)c2ccccc2[N+](=O)[O-])C(Cl)(Cl)Cl)c1 (stereo not given) here?
**A.** Its Potency is “inactive”.

**Q.** With CN1CCN(C(=O)C2=C[C@@H](C(C)(C)C)C[C@@H](OCc3ccc(CO)cc3)O2)CC1 as the molecule, how does the Potency read?
**A.** The Potency was “inactive”.

**Q.** For CCC(OC(=O)c1cccs1)C(=O)NCc1ccco1 (stereo not given), which activity change, negative = inhibition is on record?
**A.** Its activity change, negative = inhibition is inconclusive: 29.1% [activator].

**Q.** Which Potency does the source give for COc1cc2c(C(=O)Nc3ccc4c(c3)OCO4)cn(CC(C)C)c(=O)c2cc1OC here?
**A.** The Potency was active: 9.2 µM.

**Q.** With Cc1ccc(C(=O)COC(=O)c2cccs2)cc1 as the molecule, how does the Potency read?
**A.** The Potency was inconclusive: 2.31 µM [activator, full curve].

**Q.** With Cn1c(SCc2ccccn2)nnc1-c1cnccn1 as the molecule, how does the Potency read?
**A.** Its Potency is inconclusive: 11.2 µM [activator, partial curve, poor fit].

**Q.** For O=C(CC1SC(N2CCCCC2)=NC1=O)Nc1ccc(C(=O)NCCc2ccc(F)cc2)cc1 (stereo not given), which Potency is on record?
**A.** Its Potency is “inactive”.

**Q.** Which Potency does the source give for CC(=O)Nc1ccccc1C(=O)C(=O)NCCc1ccccc1 here?
**A.** Its Potency is inconclusive: 23.1 µM [activator, partial curve].

**Q.** With O=c1cc(-c2ccc(O)cc2)oc2ccc3ccccc3c12 as the molecule, how does the Potency read?
**A.** The Potency was inconclusive: 0.231 µM [activator, partial curve].

**Q.** For Cn1c2ccccc2c(=O)c2cc(C#Cc3ccc(N)cc3)ccc21, which Potency is on record?
**A.** Its Potency is inconclusive: 4.61 µM [activator, single point].

**Q.** With CC(=O)Nc1ccc(NC(=O)CC2CCCC2)cc1 as the molecule, how does the Potency read?
**A.** Its Potency is inconclusive: 18.3 µM [activator, single point].

**Q.** Which Potency does the source give for O=C(NCCc1ccc(Cl)cc1)C1CCN(C(=O)N2CCOc3ccccc32)CC1 here?
**A.** Its Potency is inconclusive: 9.2 µM [inhibitor, partial curve, poor fit].

**Q.** With Cc1cc(C(=O)CCl)c(C)n1-c1cccc([N+](=O)[O-])c1 as the molecule, how does the Potency read?
**A.** The Potency was “inactive”.

**Q.** For COc1ccc([C@@H]2[C@@H]3C(=O)N(C(C)(C)C)C(=O)[C@@H]3[C@]3(Cc4ccccc4)C(=O)N(c4cccc(Cl)c4)C(=O)N23)cc1, which Potency is on record?
**A.** The Potency was “inactive”.

**Q.** With O=[N+]([O-])c1ccccc1OCCNCc1ccccc1 as the molecule, how does the Potency read?
**A.** The Potency was “inactive”.

**Q.** For CCN(CC)c1ccc(C2Nc3cccc4cccc(c34)N2)cc1, which Potency is on record?
**A.** Its Potency is inconclusive: 13 µM [activator, partial curve].

**Q.** For Cn1c(SCC(=O)c2ccccc2)nnc1-c1cccs1, which Potency is on record?
**A.** Its Potency is inconclusive: 16.4 µM [activator, partial curve].

**Q.** For Cc1cccc(NC(=O)Nc2ccc(C)c(C)c2)n1, which Potency is on record?
**A.** The Potency was inconclusive: 16.4 µM [activator, partial curve].

**Q.** With CCCC12CN3CC(C)(CN(C1)C3c1cccs1)C2=O (stereo not given) as the molecule, how does the Potency read?
**A.** Its Potency is “inactive”.

**Q.** Which Potency does the source give for O=C1CN(C(=O)COC(=O)CCS(=O)(=O)c2ccccc2Cl)c2ccccc2N1 here?
**A.** The Potency was “inactive”.

**Q.** For CCOC(=O)C(C)n1cnc2c(nnn2-c2ccccc2)c1=O (stereo not given), which Potency is on record?
**A.** Its Potency is inconclusive: 23.1 µM [activator, partial curve, poor fit].

**Q.** With Cc1c(-c2ccncc2)oc2ccc(Br)cc2c1=O as the molecule, how does the Potency read?
**A.** Its Potency is inconclusive: 23.1 µM [activator, partial curve].

**Q.** With COc1ccc(Cl)cc1NC(=O)c1noc2c1CCCC2 as the molecule, how does the Potency read?
**A.** The Potency was “inactive”.

**Q.** With Oc1ccc(-c2nccc(-c3ccc(Cl)cc3)n2)cc1 as the molecule, how does the Potency read?
**A.** The Potency was inconclusive: 20.6 µM [activator, single point].

**Q.** With COc1ccc(CC(NC(C)=O)C(=O)NC2CCN(c3c(Cc4ccccc4)c(C)nc4ncnn34)CC2)cc1OC (stereo not given) as the molecule, how does the Potency read?
**A.** The Potency was inconclusive: 16.4 µM [inhibitor, single point].

**Q.** Which Potency does the source give for Cc1cc2ccccn2c1C(=O)c1ccc([N+](=O)[O-])o1 here?
**A.** The Potency was inconclusive: 29.1 µM [inhibitor, single point].

**Q.** For CC1CCN(C2=NC(=O)/C(=C/c3cn(-c4ccccc4)nc3-c3cccc(S(=O)(=O)N(C)C)c3)S2)CC1, which Potency is on record?
**A.** Its Potency is active: 5.17 µM.

**Q.** Which Potency does the source give for Cc1cc(Cl)c(S(=O)(=O)N2CCCCCC2)cc1OCC(N)=O here?
**A.** The Potency was inconclusive: 29.1 µM [inhibitor, single point].

**Q.** With COc1cccc(-c2nc(C(N)=O)c3[nH]c(=O)n(-c4cccc(Cl)c4)c3n2)c1OC as the molecule, how does the Potency read?
**A.** Its Potency is inconclusive: 23.1 µM [inhibitor, single point].

**Q.** Which Potency does the source give for O/N=C/c1ccc2ccccc2n1 here?
**A.** The Potency was inconclusive: 13 µM [activator, partial curve].

**Q.** Which Potency does the source give for CCc1ccc(CNC(=O)C2CCN(S(=O)(=O)N3CCC4(CC3)OCCO4)CC2)cc1 here?
**A.** The Potency was inconclusive: 16.4 µM [inhibitor, partial curve].

**Q.** Which Potency does the source give for O=S(=O)(NC1CCCC1)c1ccc(S(=O)(=O)N(Cc2cccs2)CC2CCCO2)cc1 (stereo not given) here?
**A.** Its Potency is inconclusive: 23.1 µM [inhibitor, single point].
